Data as given in PMC6242907, “Molecular basis of maintaining an oxidizing environment under anaerobiosis by soluble fumarate reductase” (Nature Communications, 2018).
These are yes or no findings as the source states them, for the method shown. For some assays here: Binding seen in cells or lysates may run through a third protein. Some results given as binding are weak or reduced against the parent protein; the word gives no strength. For some assays here: Where a sequence is shown, tags or fusion partners need not be part of it.

Amino acid sequences for entries named in this document (tags omitted). Residues count along the entry.
UniProt P21375, residues 32-501: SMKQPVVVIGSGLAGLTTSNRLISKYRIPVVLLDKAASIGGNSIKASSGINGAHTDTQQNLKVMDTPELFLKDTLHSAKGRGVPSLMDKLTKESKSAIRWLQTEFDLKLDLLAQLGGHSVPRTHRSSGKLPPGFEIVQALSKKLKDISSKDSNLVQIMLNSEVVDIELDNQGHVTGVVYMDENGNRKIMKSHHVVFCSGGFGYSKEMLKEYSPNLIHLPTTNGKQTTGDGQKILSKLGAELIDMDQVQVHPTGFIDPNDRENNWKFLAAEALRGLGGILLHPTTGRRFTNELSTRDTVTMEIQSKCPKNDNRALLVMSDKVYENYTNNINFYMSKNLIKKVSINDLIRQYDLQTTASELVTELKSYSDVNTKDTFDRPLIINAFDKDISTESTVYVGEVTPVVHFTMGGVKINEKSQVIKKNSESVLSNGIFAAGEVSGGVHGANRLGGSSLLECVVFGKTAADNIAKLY

Tests used:
[1] = molecular target: T1, Ero1 (56-424) fused to MBP (pCDFDuet) (yeast) (UniProt Q03103); assay: pull-down; lysate of E. coli BL21(DE3) co-expressing MBP-Ero1 and His-tagged Osm1; sequential pull-down with Ni-NTA then amylose beads, HBS; immunoblot with anti-His and anti-MBP
T1 sequence: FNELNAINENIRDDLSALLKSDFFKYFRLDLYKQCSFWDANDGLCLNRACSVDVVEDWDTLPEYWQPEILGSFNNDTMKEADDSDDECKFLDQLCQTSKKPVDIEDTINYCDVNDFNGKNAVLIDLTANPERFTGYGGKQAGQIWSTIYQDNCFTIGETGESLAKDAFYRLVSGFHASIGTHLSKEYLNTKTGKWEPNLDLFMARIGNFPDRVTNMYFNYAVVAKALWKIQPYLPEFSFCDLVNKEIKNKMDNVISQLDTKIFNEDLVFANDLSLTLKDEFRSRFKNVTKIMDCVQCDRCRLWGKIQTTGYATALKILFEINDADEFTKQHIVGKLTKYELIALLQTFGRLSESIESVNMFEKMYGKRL

[2] = molecular target: Osm1 (residues 32-501), 6x His-tagged (S. cerevisiae) (UniProt P21375); assay: SEC-MALS; Superdex 200 HR 10/30, 20 mM Tris-HCl pH 8.0, 150 mM NaCl; FAD- and substrate-bound Osm1; both purified

Osm1 (residues 32-501), 6x His-tagged (from UniProt P21375 32-501) (enzyme)
binding [1]: binds weakly
binding [2]: no binding
